# Laboratory results published in the supplement of paper PMC12819154, “High-throughput peptide-centric local stability assay extends protein–ligand identification to membrane proteins, tissues and bacteria” (Nature Structural & Molecular Biology, 2025).
# By UniProt entry, the sequences of proteins in these tests, tags left out. Where a name states a change or a piece, a line headed by the entry shows the natural chain unless it says otherwise.
# UniProt Q80XN0: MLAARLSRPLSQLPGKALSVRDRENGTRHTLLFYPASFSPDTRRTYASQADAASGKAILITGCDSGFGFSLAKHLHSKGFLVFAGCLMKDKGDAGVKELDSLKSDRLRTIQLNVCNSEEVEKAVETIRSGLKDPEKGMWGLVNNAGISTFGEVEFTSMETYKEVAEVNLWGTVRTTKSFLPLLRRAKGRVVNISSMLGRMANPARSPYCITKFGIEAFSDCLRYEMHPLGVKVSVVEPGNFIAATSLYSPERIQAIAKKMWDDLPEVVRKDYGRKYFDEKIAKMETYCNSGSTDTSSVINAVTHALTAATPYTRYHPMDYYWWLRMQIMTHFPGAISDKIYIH
# UniProt Q80YS6: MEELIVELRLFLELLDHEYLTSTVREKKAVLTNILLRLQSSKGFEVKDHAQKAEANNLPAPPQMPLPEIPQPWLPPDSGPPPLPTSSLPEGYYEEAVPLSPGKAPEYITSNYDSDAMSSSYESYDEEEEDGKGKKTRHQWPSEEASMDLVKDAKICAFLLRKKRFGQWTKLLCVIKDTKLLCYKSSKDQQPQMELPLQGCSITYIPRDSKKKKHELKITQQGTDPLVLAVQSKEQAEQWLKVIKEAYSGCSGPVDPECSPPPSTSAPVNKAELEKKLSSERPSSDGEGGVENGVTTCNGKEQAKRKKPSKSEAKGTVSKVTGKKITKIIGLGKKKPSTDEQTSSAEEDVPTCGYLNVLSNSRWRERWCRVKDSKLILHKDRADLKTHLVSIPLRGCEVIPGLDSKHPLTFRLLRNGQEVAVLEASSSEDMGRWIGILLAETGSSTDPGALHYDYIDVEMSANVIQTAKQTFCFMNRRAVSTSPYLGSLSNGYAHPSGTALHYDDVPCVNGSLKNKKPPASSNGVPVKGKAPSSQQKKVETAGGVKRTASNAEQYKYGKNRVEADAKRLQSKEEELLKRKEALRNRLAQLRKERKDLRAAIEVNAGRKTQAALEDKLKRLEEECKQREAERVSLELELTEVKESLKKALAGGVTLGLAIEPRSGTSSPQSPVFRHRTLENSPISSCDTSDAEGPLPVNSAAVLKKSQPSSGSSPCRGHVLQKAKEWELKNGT
# UniProt Q80XI6: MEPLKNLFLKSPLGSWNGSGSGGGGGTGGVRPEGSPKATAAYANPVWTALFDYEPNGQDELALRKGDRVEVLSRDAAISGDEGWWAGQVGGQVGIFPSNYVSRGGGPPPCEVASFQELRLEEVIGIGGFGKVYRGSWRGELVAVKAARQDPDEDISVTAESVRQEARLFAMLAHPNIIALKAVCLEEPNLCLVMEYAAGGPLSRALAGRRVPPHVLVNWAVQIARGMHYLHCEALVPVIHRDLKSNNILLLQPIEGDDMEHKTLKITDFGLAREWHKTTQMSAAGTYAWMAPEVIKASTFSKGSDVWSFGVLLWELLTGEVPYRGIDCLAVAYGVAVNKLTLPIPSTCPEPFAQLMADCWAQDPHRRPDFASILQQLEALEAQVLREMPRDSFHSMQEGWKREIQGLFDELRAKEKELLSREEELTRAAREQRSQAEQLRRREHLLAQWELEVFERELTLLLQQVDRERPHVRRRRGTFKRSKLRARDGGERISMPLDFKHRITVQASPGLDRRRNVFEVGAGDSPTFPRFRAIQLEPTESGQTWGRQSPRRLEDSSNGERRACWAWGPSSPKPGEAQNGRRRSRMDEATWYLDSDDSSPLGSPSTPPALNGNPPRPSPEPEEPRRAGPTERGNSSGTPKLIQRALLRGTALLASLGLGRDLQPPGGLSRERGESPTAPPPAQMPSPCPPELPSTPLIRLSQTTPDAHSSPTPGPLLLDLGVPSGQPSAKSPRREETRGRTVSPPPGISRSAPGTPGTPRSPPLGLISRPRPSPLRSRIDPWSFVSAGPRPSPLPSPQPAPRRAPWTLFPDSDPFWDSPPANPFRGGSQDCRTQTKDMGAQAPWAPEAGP
# UniProt Q810A3: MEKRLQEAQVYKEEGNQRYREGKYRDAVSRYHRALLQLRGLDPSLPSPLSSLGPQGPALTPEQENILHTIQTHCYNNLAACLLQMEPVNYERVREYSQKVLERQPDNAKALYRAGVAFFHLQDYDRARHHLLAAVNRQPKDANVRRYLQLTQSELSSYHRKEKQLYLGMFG
# UniProt Q80YE7: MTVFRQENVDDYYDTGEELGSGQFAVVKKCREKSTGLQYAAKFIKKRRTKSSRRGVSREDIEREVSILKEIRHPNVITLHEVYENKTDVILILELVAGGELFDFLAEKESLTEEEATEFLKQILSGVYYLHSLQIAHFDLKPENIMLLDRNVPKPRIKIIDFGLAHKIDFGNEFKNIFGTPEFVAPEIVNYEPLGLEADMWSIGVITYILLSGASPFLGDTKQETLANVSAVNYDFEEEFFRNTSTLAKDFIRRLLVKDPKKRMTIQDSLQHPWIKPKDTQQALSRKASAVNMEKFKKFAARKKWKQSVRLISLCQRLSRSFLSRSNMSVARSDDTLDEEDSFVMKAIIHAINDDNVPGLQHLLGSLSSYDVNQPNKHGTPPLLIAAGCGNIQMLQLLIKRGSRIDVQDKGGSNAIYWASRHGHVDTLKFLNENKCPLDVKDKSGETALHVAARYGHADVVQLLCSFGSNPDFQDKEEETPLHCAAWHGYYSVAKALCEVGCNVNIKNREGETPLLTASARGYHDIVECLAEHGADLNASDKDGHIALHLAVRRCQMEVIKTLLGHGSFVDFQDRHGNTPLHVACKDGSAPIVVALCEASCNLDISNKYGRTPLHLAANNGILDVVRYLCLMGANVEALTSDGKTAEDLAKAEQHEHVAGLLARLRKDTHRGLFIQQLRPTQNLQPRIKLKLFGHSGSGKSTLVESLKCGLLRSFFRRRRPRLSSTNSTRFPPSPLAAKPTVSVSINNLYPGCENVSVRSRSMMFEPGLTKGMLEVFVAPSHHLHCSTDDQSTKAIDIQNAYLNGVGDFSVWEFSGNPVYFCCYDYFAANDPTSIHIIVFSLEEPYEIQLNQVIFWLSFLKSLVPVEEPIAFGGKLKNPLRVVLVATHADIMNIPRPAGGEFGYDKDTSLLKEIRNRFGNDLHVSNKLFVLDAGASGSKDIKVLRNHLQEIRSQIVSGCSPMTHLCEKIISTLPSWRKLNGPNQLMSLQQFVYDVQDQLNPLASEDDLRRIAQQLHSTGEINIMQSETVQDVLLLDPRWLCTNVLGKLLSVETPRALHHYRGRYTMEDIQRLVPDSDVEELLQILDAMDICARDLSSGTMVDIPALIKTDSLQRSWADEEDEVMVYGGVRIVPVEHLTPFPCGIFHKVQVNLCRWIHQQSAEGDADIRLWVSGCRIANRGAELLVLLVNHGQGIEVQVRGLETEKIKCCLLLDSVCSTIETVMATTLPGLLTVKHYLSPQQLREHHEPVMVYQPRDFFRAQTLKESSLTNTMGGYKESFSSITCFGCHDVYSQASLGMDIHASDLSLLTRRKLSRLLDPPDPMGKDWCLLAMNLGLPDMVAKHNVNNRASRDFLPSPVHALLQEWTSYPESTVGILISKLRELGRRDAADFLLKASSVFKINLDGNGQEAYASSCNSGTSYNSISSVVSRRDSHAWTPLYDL
# UniProt Q8BGA8: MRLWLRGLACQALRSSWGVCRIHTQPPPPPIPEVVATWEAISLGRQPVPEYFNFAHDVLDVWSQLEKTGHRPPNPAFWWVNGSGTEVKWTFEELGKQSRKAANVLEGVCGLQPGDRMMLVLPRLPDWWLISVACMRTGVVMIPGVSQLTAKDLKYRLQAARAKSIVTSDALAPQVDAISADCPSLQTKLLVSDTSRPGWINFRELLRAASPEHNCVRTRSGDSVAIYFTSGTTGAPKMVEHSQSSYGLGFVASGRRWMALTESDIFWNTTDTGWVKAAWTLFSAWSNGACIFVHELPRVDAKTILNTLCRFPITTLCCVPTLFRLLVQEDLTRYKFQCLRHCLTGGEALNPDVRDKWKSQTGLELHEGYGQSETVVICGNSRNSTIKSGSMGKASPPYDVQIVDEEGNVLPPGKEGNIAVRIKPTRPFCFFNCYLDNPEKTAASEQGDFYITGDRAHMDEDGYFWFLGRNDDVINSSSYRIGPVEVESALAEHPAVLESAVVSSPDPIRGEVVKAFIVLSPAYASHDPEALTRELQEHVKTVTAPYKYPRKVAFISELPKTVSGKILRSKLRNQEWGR
# UniProt Q80XM9: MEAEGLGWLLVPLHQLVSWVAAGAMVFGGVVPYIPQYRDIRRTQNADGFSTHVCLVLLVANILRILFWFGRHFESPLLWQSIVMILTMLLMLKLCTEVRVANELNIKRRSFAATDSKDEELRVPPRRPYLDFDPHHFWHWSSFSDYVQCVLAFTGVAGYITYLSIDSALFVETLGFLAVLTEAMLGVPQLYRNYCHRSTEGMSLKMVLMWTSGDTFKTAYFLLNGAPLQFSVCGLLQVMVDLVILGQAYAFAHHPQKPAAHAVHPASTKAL
# UniProt Q80Z38: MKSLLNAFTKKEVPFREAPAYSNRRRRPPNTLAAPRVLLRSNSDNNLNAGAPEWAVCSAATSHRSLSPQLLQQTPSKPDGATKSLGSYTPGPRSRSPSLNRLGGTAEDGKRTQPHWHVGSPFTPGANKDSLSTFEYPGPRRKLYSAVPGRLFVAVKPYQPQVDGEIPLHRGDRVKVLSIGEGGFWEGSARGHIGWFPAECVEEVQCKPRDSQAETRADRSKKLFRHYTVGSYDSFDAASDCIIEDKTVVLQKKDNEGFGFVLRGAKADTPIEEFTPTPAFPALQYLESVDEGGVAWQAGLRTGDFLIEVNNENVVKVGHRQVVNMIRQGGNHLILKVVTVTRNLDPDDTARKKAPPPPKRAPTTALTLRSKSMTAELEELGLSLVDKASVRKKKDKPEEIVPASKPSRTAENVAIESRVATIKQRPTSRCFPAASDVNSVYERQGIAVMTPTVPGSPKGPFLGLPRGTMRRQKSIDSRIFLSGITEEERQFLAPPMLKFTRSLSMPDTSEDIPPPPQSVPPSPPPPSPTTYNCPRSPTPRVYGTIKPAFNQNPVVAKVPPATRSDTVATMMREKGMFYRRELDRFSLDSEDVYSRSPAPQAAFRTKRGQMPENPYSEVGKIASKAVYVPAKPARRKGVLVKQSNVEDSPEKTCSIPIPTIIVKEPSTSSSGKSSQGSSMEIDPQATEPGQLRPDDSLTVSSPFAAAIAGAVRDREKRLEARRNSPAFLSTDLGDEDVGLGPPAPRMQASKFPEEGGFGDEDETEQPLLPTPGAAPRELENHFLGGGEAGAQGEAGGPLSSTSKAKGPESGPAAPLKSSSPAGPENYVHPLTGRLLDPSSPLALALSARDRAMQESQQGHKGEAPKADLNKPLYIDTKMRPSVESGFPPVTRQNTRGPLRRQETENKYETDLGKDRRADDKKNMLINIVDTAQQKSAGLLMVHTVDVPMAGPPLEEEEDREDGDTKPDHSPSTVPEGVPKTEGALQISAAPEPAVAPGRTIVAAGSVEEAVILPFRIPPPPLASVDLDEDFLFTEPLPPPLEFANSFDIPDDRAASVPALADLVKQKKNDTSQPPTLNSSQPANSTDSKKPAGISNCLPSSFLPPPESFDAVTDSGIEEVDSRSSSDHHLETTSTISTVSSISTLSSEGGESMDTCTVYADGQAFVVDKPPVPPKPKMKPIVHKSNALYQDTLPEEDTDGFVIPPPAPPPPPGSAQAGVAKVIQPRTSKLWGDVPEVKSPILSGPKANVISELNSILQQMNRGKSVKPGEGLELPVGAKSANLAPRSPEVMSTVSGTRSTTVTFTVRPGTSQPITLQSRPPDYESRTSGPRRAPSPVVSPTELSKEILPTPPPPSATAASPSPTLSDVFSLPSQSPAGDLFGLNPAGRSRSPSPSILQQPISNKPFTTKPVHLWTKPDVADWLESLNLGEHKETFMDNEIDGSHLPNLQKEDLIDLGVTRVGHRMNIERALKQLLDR
# UniProt Q8BFR6: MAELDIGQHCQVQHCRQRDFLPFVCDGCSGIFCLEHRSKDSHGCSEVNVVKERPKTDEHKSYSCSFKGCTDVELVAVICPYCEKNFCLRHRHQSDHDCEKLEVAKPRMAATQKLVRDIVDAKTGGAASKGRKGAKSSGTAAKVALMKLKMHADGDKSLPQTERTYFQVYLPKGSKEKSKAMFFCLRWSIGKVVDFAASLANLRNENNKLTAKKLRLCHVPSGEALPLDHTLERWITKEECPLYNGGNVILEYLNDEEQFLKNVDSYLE
# UniProt Q8BH69: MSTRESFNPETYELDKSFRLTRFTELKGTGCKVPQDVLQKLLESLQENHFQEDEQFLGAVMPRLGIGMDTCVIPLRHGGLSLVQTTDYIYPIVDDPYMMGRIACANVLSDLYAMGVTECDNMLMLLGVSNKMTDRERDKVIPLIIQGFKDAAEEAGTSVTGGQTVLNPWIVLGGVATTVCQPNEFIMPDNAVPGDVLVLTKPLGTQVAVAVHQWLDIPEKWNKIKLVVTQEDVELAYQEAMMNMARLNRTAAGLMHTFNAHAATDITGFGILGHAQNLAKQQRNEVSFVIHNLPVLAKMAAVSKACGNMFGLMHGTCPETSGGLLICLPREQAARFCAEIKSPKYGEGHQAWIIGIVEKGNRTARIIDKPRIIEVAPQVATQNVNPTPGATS
# The other results are listed elsewhere or left out. Most entries show no effect beyond the scatter of the controls.
# Compound: CN[C@@H]1C[C@H]2O[C@@](C)([C@@H]1OC)n1c3ccccc3c3c4c(c5c6ccccc6n2c5c31)C(=O)NC4 [staurosporine]
# Experiment: log2 fold change of tryptic peptide abundance, ligand vs vehicle (limited proteolysis) (log2 ratio); higher = more trypsin-susceptible (destabilized)
# Conditions: ligand concentration: 20 uM; sample: mouse liver crude lysate; replicate design: treated separately
row,Target,log2 fold change
1,"UniProt Q80ZK0 (peptide sequence: DVTRPTITTSDEPDTLYKR, peptide start residue: 16)",-0.191
2,"UniProt Q80XN0 (peptide sequence: KMWDDLPEVVRK, peptide start residue: 259)",0.2
3,"UniProt Q80W14 (peptide sequence: DLDDLEALVK, peptide start residue: 166)",0.295
4,"UniProt Q80YS6 (peptide sequence: ICAFLLR, peptide start residue: 155)",0.0951
5,"UniProt Q80W71 (peptide sequence: MKHPIIPIHNSLER, peptide start residue: 200)",0.416
6,"UniProt Q80XI6 (peptide sequence: TVSPPPGISR, peptide start residue: 741)",0.584
7,"UniProt Q8BHL3 (peptide sequence: AVGGAPSPPPPVR, peptide start residue: 658)",0.285
8,"UniProt Q810A3 (peptide sequence: VREYSQK, peptide start residue: 93)",-0.567
9,"UniProt Q80WC1 (peptide sequence: LVHTEDPFTDEHKER, peptide start residue: 145)",-0.203
10,"UniProt Q80ZI6 (peptide sequence: VGVSEAGLQHEILR, peptide start residue: 611)",0.531
11,"UniProt Q80Y61 (peptide sequence: LRPTVTNDR, peptide start residue: 500)",-0.0894
12,"UniProt Q80YE7 (peptide sequence: KASAVNMEK, peptide start residue: 287)",0.491
13,"UniProt Q8BGA8 (peptide sequence: VAFISELPK, peptide start residue: 552)",0.155
14,"UniProt Q80YS5 (peptide sequence: SFPDHFSR, peptide start residue: 33)",0.203
15,"UniProt Q80YA3 (peptide sequence: HLLDELYITK, peptide start residue: 225)",-0.136
16,"UniProt Q80XM9 (peptide sequence: SFAATDSKDEELR, peptide start residue: 110)",0.0988
17,"UniProt Q80Y56 (peptide sequence: LLGLMSLPTKEQFEELK, peptide start residue: 369)",0.207
18,"UniProt Q810V0 (peptide sequence: SSQAFFSK, peptide start residue: 642)",-0.188
19,"UniProt Q80X41 (peptide sequence: RQQHLGLEQDMLR, peptide start residue: 414)",0.421
20,"UniProt Q80Z38 (peptide sequence: VYGTIKPAFNQNPVVAK, peptide start residue: 541)",0.345
21,"UniProt Q8BGX7 (peptide sequence: AEQHLIVAAPLR, peptide start residue: 470)",-0.141
22,"UniProt Q8BFR6 (peptide sequence: MHADGDKSLPQTER, peptide start residue: 150)",-0.675
23,"UniProt Q80VP5 (peptide sequence: KADADGIPR, peptide start residue: 172)",-0.104
24,"UniProt Q8BH69 (peptide sequence: YGEGHQAWIIGIVEK, peptide start residue: 345)",-0.293
25,"UniProt Q810A7 (peptide sequence: VSYLVFDEADR, peptide start residue: 401)",-0.234

# Pulled one by one from above (2):
row,Target,log2 fold change
25,"UniProt Q810A7 (peptide sequence: VSYLVFDEADR, peptide start residue: 401)",-0.234
22,"UniProt Q8BFR6 (peptide sequence: MHADGDKSLPQTER, peptide start residue: 150)",-0.675
